One data set addresses T1, LlMYB305 (UniProt A0A8U0AUG0).
T1 sequence (looked up, limits assumed): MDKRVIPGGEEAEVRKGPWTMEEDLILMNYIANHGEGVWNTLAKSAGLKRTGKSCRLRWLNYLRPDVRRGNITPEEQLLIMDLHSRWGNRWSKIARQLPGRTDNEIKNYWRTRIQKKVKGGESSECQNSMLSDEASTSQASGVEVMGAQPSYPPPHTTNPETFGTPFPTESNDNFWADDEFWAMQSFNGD
As to the kind of experiment: EMSA. The settings on record: EMSA: 20 min at room temperature, 6% native gel (40:1) at 4 °C, LightShift Chemiluminescent EMSA kit; salt and pH not stated; recombinant protein; protein details: GST (pGEX-4T-1); label: 5' biotin. A general note: In EMSA bound probe runs differently from free probe, usually more slowly.

Data set [1] concerns LlC3H18 (Lilium longiflorum 'White heaven'). In words: EMSA. The following applies: EMSA: 20 min at room temperature, 6% native gel (40:1) at 4 °C, LightShift Chemiluminescent EMSA kit, salt and pH not stated, recombinant protein, protein details: GST (pGEX-4T-1).

The exact form of at least one protein or probe is not confirmed. For some of these results: Where a protein sequence is shown, tags need not be part of it.

For the sequence “ATAGGGTACCTAATCTGAAAATGAGCACATGGGGTGGTTGACTCATCAAA (double strand) [ProLlC3H18-probe1]”, in the data set with LlMYB305, the binding result is given as “binds”.
Turning to “CAATTTCGCCTCCTTCTCCGAAGCAACAAATATCCATTTCATACGTGAGT (double strand) [ProLlWRKY33-probe]”, the binding result in data set [1] (label: 5' biotin) is reported as “binds”.
Turning to “GTCTATTCAGGAGGCAGTTGATATTTAGCTGATATTTTTC (double strand) [ProLlC3H18-probe2]”, the binding result in the data set with LlMYB305 is reported as “binds”.
As to “UUAUUUAUUAUUUAUUUAUUAUUUAUUUAUUAUUUAUUUAUUA [ARE RNA]”, in data set [1] (label: label (5' biotin per EMSA Methods), letters put together from the description), the binding result is reported as “binds”.

These data come from PMC10514960.
